Measurements taken from publication PMC11349869.
Results are given in words; binding and its absence hold for the method and conditions named. In cells and extracts the contact can be indirect. Some entries that bind do so weakly or less than the wild type. Sequences can lack the tags named with a protein.

T1: CmpC with C-terminal HA-H6 tag (bait of the IMAC pull-down; constructs GM337, GM339) (Synechococcus sp. PCC7942) (UniProt Q55107)
T1 sequence: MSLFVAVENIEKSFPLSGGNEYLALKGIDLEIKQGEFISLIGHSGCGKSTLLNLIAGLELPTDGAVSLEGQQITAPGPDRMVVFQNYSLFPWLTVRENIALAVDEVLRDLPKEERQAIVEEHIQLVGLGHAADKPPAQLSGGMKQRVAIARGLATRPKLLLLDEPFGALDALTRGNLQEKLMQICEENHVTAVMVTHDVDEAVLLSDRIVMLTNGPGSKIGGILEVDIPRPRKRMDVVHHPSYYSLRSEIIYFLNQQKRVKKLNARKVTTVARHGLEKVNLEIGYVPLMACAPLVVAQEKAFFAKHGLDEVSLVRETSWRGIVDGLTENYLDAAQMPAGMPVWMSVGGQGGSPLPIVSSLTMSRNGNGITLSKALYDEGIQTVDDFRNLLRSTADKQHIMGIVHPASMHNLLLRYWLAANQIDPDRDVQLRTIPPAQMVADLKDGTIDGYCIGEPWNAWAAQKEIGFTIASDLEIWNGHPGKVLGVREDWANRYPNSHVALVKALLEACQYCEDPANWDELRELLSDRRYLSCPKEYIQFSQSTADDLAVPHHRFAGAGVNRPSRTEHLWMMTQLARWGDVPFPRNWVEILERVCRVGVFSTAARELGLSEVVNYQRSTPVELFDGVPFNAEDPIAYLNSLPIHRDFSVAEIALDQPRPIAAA


What was measured:
[1] = molecular target: T1, CmpC with C-terminal HA-H6 tag (bait of the IMAC pull-down; constructs GM337, GM339) (Synechococcus sp. PCC7942); experiment: pull-down; IMAC (Ni-charged resin, 4 °C, 1 h) of His6-tagged CmpC or CmpCD fusion from 1% DDM-solubilised lysate of E. coli co-expressing the epitope-tagged BCT1 subunits from one plasmid (GM337, GM341); washes with 1% DDM, 10 mM CaCl2, 20 mM NaHCO3, 5 mM MgCl2, 5 mM ATP, 5 mM Na3VO4, 20 mM imidazole; eluate blotted for the epitope tags
[2] = molecular target: T1, CmpC with C-terminal HA-H6 tag (bait of the IMAC pull-down; constructs GM337, GM339) (Synechococcus sp. PCC7942); experiment: pull-down; IMAC as above, but NBD-only construct GM339: CmpC-HA-H6 and CmpD expressed in E. coli without CmpB

binding [1]	binding [2]	Binder
binds	–	CmpB with a small epitope tag (constructs GM337, GM341) (protein, UniProt Q55106 1-278) MVTARETRRNGSRPSGLKKWRQKLDGILLPLAGILGFLIIWQIFSSSGATRLPGPLSLFTEERTRELLLYPFLDRGGLDKGLFWQTIASLTRVAQGFSIAAIIGISVGILVGLNRQLNAMLDPLFQFLRMIAPLAWVPIALVAFQQNQPAAIFVIFITAVWPILINTAEGVRQIPQDYNNVARVLRMSKSKYLMKVVLPAALPYIFTGLRIAIGLSWLAIIAAEIVMSGIVGIGFFIWDAYQQNYVSDIILAVIYIGAVGLLLDRFVAWLQRWILRNM
binds	binds	CmpD with flag tag (constructs GM337, GM339) (protein, UniProt Q55108 1-278) MQTLRQQQPIVPSSPGHDPFLIVENVSKIYETPKGPYTVLDGVNLTVQEGEFICVIGHSGCGKSTLLNMVSGFNQPSHGSVRLKGKEIDRPGPDRMVVFQNYALLPWMTAYENVYLAVDCVNPQMREGEKREIVREHLAMVGLTEAAEKKITQISGGMKQRVAIARALSIRPEVLILDEPFGALDAITKEELQEELLKIWNDHRCTVLMITHDIDEALFLADRLVMMTNGPAANIGEIMTIPFPRPRDRERIMEDPQYYDLRNYALDFLYNRFAHDDE
